According to PubChem BioAssay AID2685 (National Center for Advancing Translational Sciences (NCATS), 2010):
The other results are listed elsewhere or left out. Shown are side measurements of this screen, not its main read-out; they come without a call. Most of these compounds were active or inconclusive in the main read-out, so they are no random draw. The note in brackets gives the kind of curve behind each potency; many fits are weak.

Experiment: qHTS Assay for Lipid Storage Modulators in Drosophila S3 Cells;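 on cell number change: cells counted by Cell Tracker Red CMTPX staining in the red channel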
Conditions: BODIPY lipid droplet fluorescence, 18-24 h; for cell number change: measured here: cell count max response, cells fed with added oleic acid
In short: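 Laser-scanning cytometry quantifies lipid droplet accumulation (500–530 nm total intensity; droplet/cell object ratio) in oleic acid-fed (400 uM added) Drosophila S3 cells treated with a concentration series. 20 uM Triacsin C defined 100% inhibition.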

[1] = measured here: lipid fluorescence (Fed channel) AC50, cells fed with added oleic acid
[2] = measured here: cell number channel AC50, cells fed with added oleic acid

Structure (SMILES)	cell number change [%]	AC50 [1]	AC50 [2]
O=S(=O)(Nc1ccc2c3c(cccc13)CC2)c1ccc(F)cc1	-27.1	9200 nM [falling, partial curve, poor fit]	
CN(CC1CCN(CCc2cccc(C(F)(F)F)c2)CC1)C(=O)c1ccccc1	4.71		
O=C(O)c1ccccc1C(=O)OCCc1cc2ccccc2c(=O)o1	-6.67	16400 nM [rising, single point]	
COc1ccc(-c2nc(C3CCCCC3)no2)cc1OC	29.3	29100 nM [rising, single point]	
COc1ccc2c(CC(=O)OCC(=O)Nc3cc(C)c(C)cc3[N+](=O)[O-])coc2c1	27.8	8200 nM [rising, partial curve]	
CC1(C)CC(=O)C/C(=N/NC(=O)COc2ccc(Cl)cc2Cl)C1	27.5	8200 nM [rising, partial curve, poor fit]	
Cc1ccc(S(=O)(=O)N2CCC(C(=O)Nc3nnc(COc4ccccc4)s3)CC2)cc1	7.37		
COc1ccccc1/C=N/NC(=S)Nc1cccnc1	21.9	4610 nM [rising, full curve]	
CCOC(=O)c1ccc(NC(=O)NNC(=O)CCc2ccc(OC)cc2)cc1	-2.59	3660 nM [rising, full curve, poor fit]	461 nM [rising, single point]
O=C(COc1ccc(/C=N/NS(=O)(=O)c2ccccc2)cc1)NCc1ccccc1		29100 nM [rising, single point]	
O=C(NCc1cc(C(F)(F)F)cc(C(F)(F)F)c1)C1CC(c2cccc(F)c2)=NO1 (stereo not drawn)	4.17	9.2 nM [rising, full curve, poor fit]	
Cc1sc(NC(=O)CCC(=O)O)c(C(N)=O)c1-c1ccccc1	58	1300 nM [falling, single point]	29100 nM [rising, single point]
O=C(O)c1ccc(CN2CCCCC2)o1	0.26	14600 nM [falling, partial curve]	
CC1(NC(=O)c2cccc(S(=O)(=O)N3CCN(c4ccccc4)CC3)c2)CCS(=O)(=O)C1 (stereo not drawn)	21.5	29100 nM [rising, single point]	
Cn1c(=O)cc(SCC(=O)N2CCCC2)c2ccccc21	26.5	6510 nM [rising, single point]	
CC(C)c1ccc(C(N)=S)cc1	47.5		
c1ccc(CSc2nnc(Cc3ccccn3)o2)cc1	35.1	13000 nM [rising, partial curve]	14600 nM [rising, single point]
COc1ccc(N2CCN(C(=O)c3ccc(CSc4ccccc4)cc3)CC2)cc1	-44.1	65.1 nM [rising, full curve, poor fit]	29100 nM [falling, single point]
C=CCn1c(Oc2ccccc2F)nc2c1c(=O)n(C)c(=O)n2C	-8.4	731 nM [falling, full curve]	
COc1ccc(NC(=O)CN2C(=O)CSC(C)C2=O)c(OC)c1 (stereo not drawn)	9.05	820 nM [rising, single point]	

Structure (SMILES)	cell number change [%]	AC50 [1]	AC50 [2]
CCOC(=O)c1cnc2c(C(=O)OC)cccc2c1NCc1cccnc1	2.68	1840 nM [falling, partial curve]	1840 nM [falling, partial curve]
Cn1c(CNC(=O)c2ccccc2F)nnc1SCC(=O)N1CCN(c2ccccc2)CC1	-26.7	29100 nM [falling, single point]	
CC(=O)N1CCCc2cc(S(=O)(=O)N(C)Cc3ccccc3)ccc21		1840 nM [rising, partial curve]	1640 nM [rising, partial curve]
COc1ccccc1CN(C(=O)CCl)C(C(=O)NC1CCCCC1)c1ccncc1 (stereo not drawn)	-25.6	580 nM [falling, single point]	
O=C(CCN1C(=O)COc2ccccc21)N1CCN(c2ccccn2)CC1	144	580 nM [rising, single point]	29100 nM [rising, single point]
COc1ccc(N2CCN(C(=O)NC(=O)c3ccccc3)CC2)cc1	32.1	23100 nM [rising, single point]	16400 nM [rising, single point]
CC(C)OC(=O)c1ccc(NC(=O)c2ccccc2)cc1	26.8		
CN1CCC(OC(=O)c2ccccc2Cl)CC1	2.69	2060 nM [falling, partial curve]	
Cn1c(/N=C/c2cccs2)nc2ccccc21	-11.4	116 nM [falling, full curve, poor fit]	
Cc1ccc(OCCC(=O)Nc2ccc3c(c2)OCO3)cc1	11	146 nM [falling, full curve, poor fit]	146 nM [falling, full curve, poor fit]
CS(=O)(=O)c1ccc(S(=O)CC(=O)OCc2ccccc2)c([N+](=O)[O-])c1 (stereo not drawn)		29100 nM [falling, single point]	
COc1cc([C@@H]2CC=C(C(=O)O)[C@H](c3ccccc3)N2S(=O)(=O)c2ccc(C)cc2)cc(OC)c1OC	-1.85	5.17 nM [rising, full curve, poor fit]	
Cc1ccc(N(C(=O)CNC(=O)c2ccco2)C(C(=O)NC2CCCCC2)c2ccncc2)c(C)c1 (stereo not drawn)	-15.4		
COc1cc(C)cc(OC)c1OCC(=O)Nc1cc(C)on1	-14.7	11600 nM [falling, partial curve]	
Cc1c(C(=O)OCC(=O)Nc2ccc(C(=O)N(C)C)cc2)oc2ccccc12	8.84	1120 nM [rising, full curve, poor fit]	
COc1ccc(C2CC(C(F)(F)F)n3nc(CO)c(Cl)c3N2)cc1OC (stereo not drawn)	-4.65		
CCC1CCCCN1C(=O)c1ccc(OC2CCN(C(=O)COC)CC2)cc1 (stereo not drawn)	36.9	517 nM [rising, full curve, poor fit]	461 nM [rising, partial curve]
Cc1ccc(OCC(=O)Nc2ccccc2C(=O)NC2CC2)cc1C	-6.79		
N#Cc1c2ccc(OCC(N)=O)cc2n2ccccc12	25.7	184 nM [rising, full curve, poor fit]	
Oc1cc(Cc2ccccc2)cnc1CN1CCOCC1	12.4	146 nM [falling, full curve, poor fit]	6510 nM [falling, single point]

5 records drawn at random from the list so far, as already listed:
Structure (SMILES)	cell number change [%]	AC50 [1]	AC50 [2]
COc1ccccc1CN(C(=O)CCl)C(C(=O)NC1CCCCC1)c1ccncc1 (stereo not drawn)	-25.6	580 nM [falling, single point]	
COc1ccc(-c2nc(C3CCCCC3)no2)cc1OC	29.3	29100 nM [rising, single point]	
O=C(CCN1C(=O)COc2ccccc21)N1CCN(c2ccccn2)CC1	144	580 nM [rising, single point]	29100 nM [rising, single point]
COc1ccc2c(CC(=O)OCC(=O)Nc3cc(C)c(C)cc3[N+](=O)[O-])coc2c1	27.8	8200 nM [rising, partial curve]	
C=CCn1c(Oc2ccccc2F)nc2c1c(=O)n(C)c(=O)n2C	-8.4	731 nM [falling, full curve]	

Next part.

Structure (SMILES)	cell number change [%]	AC50 [1]	AC50 [2]
COc1ccc(C(CC(=O)N2CCN(c3ccccc3)CC2)c2c(OC)cc(OC)c3c(-c4ccccc4)cc(=O)oc23)cc1 (stereo not drawn)	25.7		
O=C(NNC(=S)Nc1ccccc1C(F)(F)F)c1cccnc1	-16.2	35500 nM [falling, single point]	
CSc1nsc(SC)c1NC(=O)OC1CCCCC1	6.44		
NC(=O)c1ccc(Oc2ccc3ccc(=O)oc3c2)c([N+](=O)[O-])c1	84.9	6510 nM [rising, partial curve]	20600 nM [rising, partial curve]
CC[C@H]1c2[nH]c3ccccc3c2C[C@@H]2C(=O)N(c3ccc(F)cc3)C(=O)N21	12.9	1840 nM [rising, single point]	
CCN(CC(=O)Nc1ccc(NC(C)=O)cc1)C(=O)C1CC(=O)N(Cc2ccc(C)cc2)C1 (stereo not drawn)	-3.96	18400 nM [rising, partial curve]	
O=C(O)c1cc(S(=O)(=O)N2CC=C(c3ccccc3)CC2)ccc1O	-2.33	2910 nM [falling, single point]	
COc1ccc(Br)cc1-c1nc2c(c(=O)[nH]c(=O)n2Cc2ccccc2)n1C	14.5	11600 nM [rising, partial curve, poor fit]	
COc1ccccc1C(=O)NCCC(=O)N(C)Cc1ccc(C)o1	-13.3		
CCOC(=O)c1ccc(NC(=O)Cn2cnc3cc(C)c(C)cc32)cc1	-33.9	10300 nM [falling, partial curve]	7310 nM [falling, partial curve]
O=C(C=C=Nc1ccccc1)C(=O)N=C=Cc1ccccc1	-23	130 nM [falling, full curve]	130 nM [falling, full curve, poor fit]
Cc1c(C(N)=O)c(-c2ccccc2)nn1-c1ccccc1	2.07	130 nM [falling, full curve, poor fit]	
CCOC(=O)C1C(=O)NC(c2ccccc2)=NC1c1ccc(OC)cc1 (stereo not drawn)	31		366 nM [rising, full curve, poor fit]
Cc1ccc(S(=O)(=O)N2CCC(=O)N(C(CO)C(C)C)CC2)cc1 (stereo not drawn)	17.6	820 nM [rising, full curve]	1030 nM [rising, full curve]
CCC(c1nnnn1C(C)(C)C)N1CCN(C(=O)c2ccco2)CC1 (stereo not drawn)	3.75		
O=C(CN(C(=O)C1CSC(=O)C1)c1cccc(F)c1)NCc1ccc2c(c1)OCO2 (stereo not drawn)	12.1	130 nM [rising, full curve, poor fit]	
CCC(=O)c1ccc(OCC(=O)OCC(=O)Nc2ccc(C)c(S(=O)(=O)N3CCCCC3)c2)cc1	9.97	3660 nM [falling, single point]	
OCCNc1nc2ccccc2n1-c1ncnc2sc3c(c12)CCC3	5.76	29100 nM [rising, single point]	184 nM [rising, full curve, poor fit]
